Reference: PubChem BioAssay AID330 (DTP/NCI, 2004)
The list shows only some results of the screen, not a fair sample: it is rich in T/C values a quarter to a half above the control, in often repeated tests (any T/C) and in doses without a T/C. Further doses and runs are listed elsewhere. T/C gives the treated animals as a percentage of the vehicle group. Some entries give survivors of the animals treated and no T/C: the source files T/C as zero there, which appears to mark a toxic dose or a test without result, not a measured value. Some survivor counts are full or nearly so, which does not show that the dose was tolerated: the source hardly ever lists a survival T/C far under the control, and the zero likely stands for such cases as well. Counts of survivors are from the toxicity check (mostly the fifth day) where no day follows; animals may have died later. Schedules are NCI's codes, read here as Q, the interval in days (D) or hours (H), X, the number of doses. Where survival is the endpoint, this PubChem deposit counts one and a half times the control or more as active, and values a quarter to a half above the control carry no call in these data; other NCI protocols may use other cut-offs. Some T/C values are followed by the survivors on the day toxicity was checked, most often the fifth; without a count, all were alive then. Some doses were run more than once; their values stand side by side, smallest first. Counts like (3×) say how often a value occurs here.

Tested on: P388 leukemia ip, CD2F1 mice, survival T/C
Assay: NCI In Vivo Anticancer Drug Screen. Data for tumor model P388 Leukemia (intraperitoneal) in CD2F1 (CDF1) mice
Details: T/C endpoint: median survival time, higher T/C = longer survival

In the case of `Cc1c2ccncc2c(C)c2c1[nH]c1ccccc12`, the T/C (dose: 1.56 mg/kg/injection, schedule: Q01DX009 (ip), vehicle: saline with Tween-80) is reported as 127 % of control, the T/C (dose: 5.0 mg/kg/injection, schedule: Q01DX005 (ip), vehicle: Klucel (hydroxypropylcellulose) (HPC)) is reported as 129 % of control and the T/C (dose: 5.0 mg/kg/injection, schedule: Q04DX003 (ip), vehicle: distilled water + Tween-80) is reported as 127 % of control. The T/C (dose: 6.25 mg/kg/injection, schedule: Q04DX003 (ip), vehicle: alkali diluted with water) was 140 % of control, the T/C (dose: 7.78 mg/kg/injection, schedule: Q04DX003 (ip), vehicle: saline with Tween-80) was 136 % of control and the T/C (dose: 10.0 mg/kg/injection, schedule: Q01DX005 (iv), vehicle: saline with Tween-80) was 125 % of control. For the same compound, the T/C (dose: 10.0 mg/kg/injection, schedule: Q04DX003 (ip), vehicle: distilled water + Tween-80) was 145 % of control, the T/C (dose: 10.0 mg/kg/injection, schedule: Q04DX003 (ip), vehicle: water) was 129 % of control and the T/C (dose: 12.5 mg/kg/injection, schedule: Q04DX002 (ip), vehicle: distilled water + Tween-80, evaluated on day 30) was 119, 123 (2×), 126, 128, 130, 131, 134 (2×), 139 % of control. The T/C (dose: 12.5 mg/kg/injection, schedule: Q04DX002 (ip), vehicle: distilled water + Tween-80, evaluated on day 35) was 126 % of control, the T/C (dose: 12.5 mg/kg/injection, schedule: Q04DX002 (ip), vehicle: saline with Tween-80) was 122, 123, 139, 142 % of control and the T/C (dose: 12.5 mg/kg/injection, schedule: Q04DX003 (ip), vehicle: clinical formulation, evaluated on day 30) was 144 % of control. For the same compound, the T/C (dose: 12.5 mg/kg/injection, schedule: Q04DX003 (ip), vehicle: clinical formulation, evaluated on day 35) was 142 % of control [5 of 6 alive], the T/C (dose: 12.5 mg/kg/injection, schedule: Q04DX003 (ip), vehicle: distilled water + Tween-80, evaluated on day 30) was 123, 124, 124 [5 of 6 alive], 125, 127, 129, 133, 134, 136 (3×), 138, 140 (2×), 142 (2×), 143, 145, 148, 150, 153 % of control (2×) and the T/C (dose: 12.5 mg/kg/injection, schedule: Q04DX003 (ip), vehicle: distilled water + Tween-80, evaluated on day 35) was 127 % of control. For the same compound, the T/C (dose: 12.5 mg/kg/injection, schedule: Q04DX003 (ip), vehicle: distilled water + Tween-80, evaluated on day 45) was 146 % of control, the T/C (dose: 12.5 mg/kg/injection, schedule: Q04DX003 (ip), vehicle: distilled water + Tween-80, evaluated on day 60) was 130 % of control and the T/C (dose: 12.5 mg/kg/injection, schedule: Q04DX003 (ip), vehicle: saline with Tween-80) was 128, 132, 147, 154, 175 % of control. The T/C (dose: 12.5 mg/kg/injection, schedule: Q04DX003 (ip), vehicle: saline) was 129 (2×), 145, 147, 158 % of control, the T/C (dose: 12.5 mg/kg/injection, schedule: Q04DX003 (ip), vehicle: water) was 129 % of control and the T/C (dose: 13.0 mg/kg/injection, schedule: Q04DX003 (ip), vehicle: saline with Tween-80) was 143, 156, 157, 167 % of control. For the same compound, the T/C (dose: 20.0 mg/kg/injection, schedule: Q04DX003 (ip), vehicle: distilled water + Tween-80) was 139 % of control, the T/C (dose: 20.0 mg/kg/injection, schedule: Q04DX003 (ip), vehicle: water) was 146 % of control [5 of 6 alive] and the T/C (dose: 20.0 mg/kg/injection, schedule: Q04DX003 (iv), vehicle: distilled water + Tween-80) was 125 % of control. The T/C (dose: 21.6 mg/kg/injection, schedule: Q04DX002 (ip), vehicle: saline with Tween-80) was 145 % of control, the T/C (dose: 21.6 mg/kg/injection, schedule: Q04DX003 (ip), vehicle: saline with Tween-80) was 161, 167, 173, 176 % of control and the T/C (dose: 25.0 mg/kg/injection, schedule: Q04DX002 (ip), vehicle: distilled water + Tween-80, evaluated on day 30) was 135, 141 (2×), 144, 145, 146 (2×), 148, 153, 174 % of control. The T/C (dose: 25.0 mg/kg/injection, schedule: Q04DX002 (ip), vehicle: distilled water + Tween-80, evaluated on day 35) was 145 % of control, the T/C (dose: 25.0 mg/kg/injection, schedule: Q04DX002 (ip), vehicle: saline with Tween-80) was 144 (2×), 163, 164, 168 % of control and the T/C (dose: 25.0 mg/kg/injection, schedule: Q04DX003 (ip), vehicle: distilled water + Tween-80, evaluated on day 30) was 139, 142, 144, 145 (3×), 146, 149, 150, 155 (2×), 156, 157 (3×), 163, 166, 167, 168, 171 (2×), 179 % of control. The T/C (dose: 25.0 mg/kg/injection, schedule: Q04DX003 (ip), vehicle: distilled water + Tween-80, evaluated on day 35) was 137 % of control, the T/C (dose: 25.0 mg/kg/injection, schedule: Q04DX003 (ip), vehicle: distilled water + Tween-80, evaluated on day 45) was 157 % of control and the T/C (dose: 25.0 mg/kg/injection, schedule: Q04DX003 (ip), vehicle: distilled water + Tween-80, evaluated on day 60) was 144 % of control. For the same compound, the T/C (dose: 25.0 mg/kg/injection, schedule: Q04DX003 (ip), vehicle: saline with Tween-80) was 153, 156, 166, 190, 193 % of control, the T/C (dose: 25.0 mg/kg/injection, schedule: Q04DX003 (ip), vehicle: saline) was 140, 150, 152, 165, 166 % of control and the T/C (dose: 36.0 mg/kg/injection, schedule: Q04DX003 (ip), vehicle: saline with Tween-80) was 185, 192, 213 % of control (2×). The survivor count (dose: 40.0 mg/kg/injection, schedule: Q01DX005 (iv), vehicle: saline with Tween-80) was 0 of 6, the T/C (dose: 40.0 mg/kg/injection, schedule: Q04DX003 (ip), vehicle: distilled water + Tween-80) was 145 % of control and the survivor count (dose: 40.0 mg/kg/injection, schedule: Q04DX003 (ip), vehicle: water) was 6 of 6. For the same compound, the survivor count (dose: 40.0 mg/kg/injection, schedule: Q04DX003 (iv), vehicle: distilled water + Tween-80) was 4 of 6, the T/C (dose: 43.2 mg/kg/injection, schedule: Q04DX002 (ip), vehicle: saline with Tween-80) was 136 % of control and the T/C (dose: 50.0 mg/kg/injection, schedule: Q04DX002 (ip), vehicle: distilled water + Tween-80, evaluated on day 30) was 140, 146, 160, 162, 166, 167, 171, 172, 173, 174 % of control. The T/C (dose: 50.0 mg/kg/injection, schedule: Q04DX002 (ip), vehicle: distilled water + Tween-80, evaluated on day 35) was 151 % of control, the T/C (dose: 50.0 mg/kg/injection, schedule: Q04DX002 (ip), vehicle: saline with Tween-80) was 149, 164, 166, 180, 196 % of control and the T/C (dose: 50.0 mg/kg/injection, schedule: Q04DX003 (ip), vehicle: clinical formulation) was 125 % of control.
